Reference: publication PMC7647119
For at least one entry, the source does not settle the construct or the ends of the probe.

Chains of the proteins cited; added tags and fusions are not shown. A line that says so, or that is headed by a name, gives the form on record, which may keep a tag or linker.
OsTIF1-His (Oryza sativa), one chain, as listed by the source: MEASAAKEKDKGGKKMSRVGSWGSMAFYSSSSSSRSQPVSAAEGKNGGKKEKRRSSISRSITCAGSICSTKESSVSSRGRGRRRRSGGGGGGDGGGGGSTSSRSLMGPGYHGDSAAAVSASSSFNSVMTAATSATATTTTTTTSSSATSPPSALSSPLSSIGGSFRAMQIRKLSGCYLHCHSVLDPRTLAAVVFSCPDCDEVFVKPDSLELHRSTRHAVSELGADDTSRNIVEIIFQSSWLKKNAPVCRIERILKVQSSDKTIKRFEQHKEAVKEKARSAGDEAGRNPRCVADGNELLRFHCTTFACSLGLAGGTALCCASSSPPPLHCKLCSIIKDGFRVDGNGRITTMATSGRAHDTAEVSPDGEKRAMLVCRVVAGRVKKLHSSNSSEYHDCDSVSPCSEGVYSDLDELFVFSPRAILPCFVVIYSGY

Assays:
[1] = system: OsTIF1-His (Oryza sativa); experiment: EMSA; settings: LightShift Chemiluminescent EMSA Kit per manufacturer; pH and temperature not stated; recombinant protein; protein details: pET32a vector tags (His); label: biotin 3' end
[2] = molecular target: T1, MADS29-His (Oryza sativa) (UniProt Q6H711); experiment: EMSA; settings: LightShift Chemiluminescent EMSA Kit per manufacturer; pH and temperature not stated; recombinant protein; residues 1-260; protein details: pET32a vector tags (His); label: biotin 3' end; probe letters rebuilt from the primers and the genome
T1 sequence: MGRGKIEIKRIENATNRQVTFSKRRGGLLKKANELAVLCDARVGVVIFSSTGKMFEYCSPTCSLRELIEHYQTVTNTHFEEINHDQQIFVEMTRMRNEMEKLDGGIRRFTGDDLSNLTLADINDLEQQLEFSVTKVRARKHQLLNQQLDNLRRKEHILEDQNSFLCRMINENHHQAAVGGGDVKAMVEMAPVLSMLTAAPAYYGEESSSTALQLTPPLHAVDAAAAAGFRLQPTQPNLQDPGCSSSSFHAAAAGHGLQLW

| Sequence | binding result [1] | binding result [2] |
| --- | --- | --- |
| GTGAAGCCTGTAGTACACTAGTACCTCTGT (double strand) [POsTAA1 -377 probe] | binds |  |
| TCCTACTAATCATCGATGCTTCATCAAAGC (double strand) [POsTAA1 -2349 probe] | binds |  |
| TGTGTTGTGATAGCTCATAACTAATTATAGCTAGTTAGCATATTATCCTTTTAATAACAA (double strand) [POsAsp1 -1217 CArG probe] |  | binds |
| ACTTGGATTTCATCACTAGTATGCGTCGAG (double strand) [POsTAA1 -1748 probe] | binds |  |
